{"source": "paper doi:10.1101/488536", "binders": {"B1": {"name": "CMI1, pDEST22/pDEST32 two-hybrid fusion (protein, UniProt O81831 1-130)", "chain": "MASPKSPTRPTQQNPQPNFHDFLPTMAGNLGGEGLIGELCNGFELLMDREKGVITFESLRRNAAAVLGLGDLTDEDVRCMIKEGDFDCDGALNQMEFCVLMFRLSPDLMEASRCLVTEVIEEEFGFTRRH"}, "B2": {"name": "PINOID (PID), AGC kinase, two-hybrid fusion (enzyme, UniProt O64682 1-438)", "chain": "MLRESDGEMSLGTTNSPISSGTESCSSFSRLSFDAPPSTIPEEESFLSLKPHRSSDFAYAEIRRRKKQGLTFRDFRLMRRIGAGDIGTVYLCRLAGDEEESRSSYFAMKVVDKEALALKKKMHRAEMEKTILKMLDHPFLPTLYAEFEASHFSCIVMEYCSGGDLHSLRHRQPHRRFSLSSARFYAAEVLVALEYLHMLGIIYRDLKPENILVRSDGHIMLSDFDLSLCSDSIAAVESSSSSPENQQLRSPRRFTRLARLFQRVLRSKKVQTLEPTRLFVAEPVTARSGSFVGTHEYVAPEVASGGSHGNAVDWWAFGVFLYEMIYGKTPFVAPTNDVILRNIVKRQLSFPTDSPATMFELHARNLISGLLNKDPTKRLGSRRGAAEVKVHPFFKGLNFALIRTLTPPEIPSSVVKKPMKSATFSGRSSNKPAAFDYF"}, "B3": {"name": "CMI1, LexA system two-hybrid fusions (CMI1-LexA-BD and CMI1-Lex-AD) (protein, UniProt O81831 1-130)", "chain": "B1 chain"}, "B4": {"name": "ARF5, two-hybrid fusion (prey) (protein, UniProt P93024 1-902)", "chain": "MMASLSCVEDKMKTSCLVNGGGTITTTTSQSTLLEEMKLLKDQSGTRKPVINSELWHACAGPLVCLPQVGSLVYYFSQGHSEQVAVSTRRSATTQVPNYPNLPSQLMCQVHNVTLHADKDSDEIYAQMSLQPVHSERDVFPVPDFGMLRGSKHPTEFFCKTLTASDTSTHGGFSVPRRAAEKLFPPLDYSAQPPTQELVVRDLHENTWTFRHIYRGQPKRHLLTTGWSLFVGSKRLRAGDSVLFIRDEKSQLMVGVRRANRQQTALPSSVLSADSMHIGVLAAAAHATANRTPFLIFYNPRACPAEFVIPLAKYRKAICGSQLSVGMRFGMMFETEDSGKRRYMGTIVGISDLDPLRWPGSKWRNLQVEWDEPGCNDKPTRVSPWDIETPESLFIFPSLTSGLKRQLHPSYFAGETEWGSLIKRPLIRVPDSANGIMPYASFPSMASEQLMKMMMRPHNNQNVPSFMSEMQQNIVMGNGGLLGDMKMQQPLMMNQKSEMVQPQNKLTVNPSASNTSGQEQNLSQSMSAPAKPENSTLSGCSSGRVQHGLEQSMEQASQVTTSTVCNEEKVNQLLQKPGASSPVQADQCLDITHQIYQPQSDPINGFSFLETDELTSQVSSFQSLAGSYKQPFILSSQDSSAVVLPDSTNSPLFHDVWDTQLNGLKFDQFSPLMQQDLYASQNICMSNSTTSNILDPPLSNTVLDDFCAIKDTDFQNHPSGCLVGNNNTSFAQDVQSQITSASFADSQAFSRQDFPDNSGGTGTSSSNVDFDDCSLRQNSKGSSWQKIATPRVRTYTKVQKTGSVGRSIDVTSFKDYEELKSAIECMFGLEGLLTHPQSSGWKLVYVDYESDVLLVGDDPWEEFVGCVRCIRILSPTEVQQMSEEGMKLLNSAGINDLKTSVS"}, "B5": {"name": "cmi1D85N, pGAD-cmi1D85N two-hybrid fusion (protein, UniProt O81831 1-130)", "chain": "B1 chain with D85N"}, "B6": {"name": "cmi1 L59A, pDEST22/pDEST32 two-hybrid fusion (protein, UniProt O81831 1-130)", "chain": "B1 chain with L59A"}, "B7": {"name": "cmi1 L92A, pDEST22/pDEST32 two-hybrid fusion (protein, UniProt O81831 1-130)", "chain": "B1 chain with L92A"}, "B8": {"name": "cmi1 L100A, pDEST22/pDEST32 two-hybrid fusion (protein, UniProt O81831 1-130)", "chain": "B1 chain with L100A"}}, "experiment_in_all_cases": "two-hybrid", "key": {"[1]": {"biological_target": "T1, ICR1 W338Q, two-hybrid fusion (Arabidopsis) (UniProt Q8LE98)", "T1 sequence": "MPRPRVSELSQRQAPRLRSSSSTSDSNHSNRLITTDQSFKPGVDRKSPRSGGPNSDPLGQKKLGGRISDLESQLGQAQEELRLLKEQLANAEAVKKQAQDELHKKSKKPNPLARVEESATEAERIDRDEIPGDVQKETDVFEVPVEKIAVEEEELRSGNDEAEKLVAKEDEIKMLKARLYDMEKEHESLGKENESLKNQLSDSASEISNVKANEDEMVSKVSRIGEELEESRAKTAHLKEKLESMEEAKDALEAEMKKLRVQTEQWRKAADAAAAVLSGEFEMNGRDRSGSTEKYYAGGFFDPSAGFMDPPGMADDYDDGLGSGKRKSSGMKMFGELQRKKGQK"}, "[2]": {"biological_target": "T2, ICR1W266A, two-hybrid fusion (Arabidopsis) (UniProt Q8LE98)", "T2 sequence": "T1 sequence with W266A, Q338W"}, "[3]": {"biological_target": "T3, ICR1W338A, two-hybrid fusion (Arabidopsis) (UniProt Q8LE98)", "T3 sequence": "T1 sequence with Q338A"}, "[4]": {"biological_target": "T4, full-length ICR1, pDEST22/pDEST32 two-hybrid fusion (Arabidopsis) (UniProt Q8LE98)", "T4 sequence": "T1 sequence with Q338W"}, "[5]": {"biological_target": "T5, icr1-151-344 (ICR1 C-terminal fragment, residues 151 to 344), two-hybrid fusion (Arabidopsis) (UniProt Q8LE98)", "T5 sequence": "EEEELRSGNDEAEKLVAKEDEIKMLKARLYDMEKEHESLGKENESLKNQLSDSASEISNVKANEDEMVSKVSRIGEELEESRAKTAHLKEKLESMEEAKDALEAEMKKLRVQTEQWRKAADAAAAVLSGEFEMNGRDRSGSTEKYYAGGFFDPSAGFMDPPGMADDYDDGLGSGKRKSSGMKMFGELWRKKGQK"}, "[6]": {"biological_target": "T6, icr1-301-344 (the 44 C-terminal residues of ICR1), two-hybrid fusion (Arabidopsis) (UniProt Q8LE98)", "T6 sequence": "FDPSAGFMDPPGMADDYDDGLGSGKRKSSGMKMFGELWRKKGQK"}, "[7]": {"biological_target": "T7, icr1W266Q, two-hybrid fusion (Arabidopsis) (UniProt Q8LE98)", "T7 sequence": "T1 sequence with W266Q, Q338W"}, "[8]": {"biological_target": "T8, CMI1, two-hybrid fusion of the assays with auxin transport and signaling proteins (S11 Fig) (Arabidopsis) (UniProt O81831)", "T8 sequence": "B1 chain"}, "[9]": {"biological_target": "T9, CMI2/PID Binding Protein 1 (PBP1), two-hybrid fusion (Arabidopsis) (UniProt Q9LSQ6)", "T9 sequence": "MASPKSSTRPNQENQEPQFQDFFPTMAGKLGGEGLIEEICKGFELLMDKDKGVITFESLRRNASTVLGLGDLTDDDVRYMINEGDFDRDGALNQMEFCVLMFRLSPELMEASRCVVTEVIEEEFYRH"}, "[10]": {"biological_target": "T10, ICR1, LexA system two-hybrid fusion (Arabidopsis) (UniProt Q8LE98)", "T10 sequence": "T1 sequence with Q338W"}, "[11]": {"biological_target": "T11, ICR1 (Interactor of Constitutively active ROP 1), pGBT-ICR1 two-hybrid fusion (Arabidopsis) (UniProt Q8LE98)", "T11 sequence": "T1 sequence with Q338W"}}, "note": "Where a chain is given by its changes, count along the chain named. In names and notes the source's numbering stands. These are yes or no findings as the source states them, for the method shown. Some entries that bind do so weakly or less than the wild type. Sequences can lack the tags named with a protein."}
{"binder": "B1", "values": [{"measurement": "binding", "setting": "[1]", "value": "no binding"}, {"measurement": "binding", "setting": "[2]", "value": "binds"}, {"measurement": "binding", "setting": "[3]", "value": "no binding"}, {"measurement": "binding", "setting": "[4]", "value": "binds"}, {"measurement": "binding", "setting": "[5]", "value": "binds"}, {"measurement": "binding", "setting": "[6]", "value": "binds"}, {"measurement": "binding", "setting": "[7]", "value": "binds"}]}
{"binder": "B2", "values": [{"measurement": "binding", "setting": "[8]", "value": "no binding"}, {"measurement": "binding", "setting": "[9]", "value": "binds"}]}
{"binder": "B3", "values": [{"measurement": "binding", "setting": "[10]", "value": "binds"}]}
{"binder": "B4", "values": [{"measurement": "binding", "setting": "[8]", "value": "no binding"}]}
{"binder": "B5", "values": [{"measurement": "binding", "setting": "[11]", "value": "no binding"}]}
{"binder": "B6", "values": [{"measurement": "binding", "setting": "[4]", "value": "no binding"}]}
{"binder": "B7", "values": [{"measurement": "binding", "setting": "[4]", "value": "no binding"}]}
{"binder": "B8", "values": [{"measurement": "binding", "setting": "[4]", "value": "no binding"}]}
